From publication PMC9092175
Results are given in words; binding and its absence hold for the method and conditions named.

Target: plant virus-based immunosorbent nanoparticle (VIN): assembled turnip vein clearing virus (TVCV) virion of coat protein Fc-affinity ligand fusion (CP-FcAL) (turnip vein clearing virus | S. aureus) (UniProt Q88922)
Assay: co-sedimentation; affinity sedimentation: purified VIN mixed in free suspension with a pre-purified target; VIN-target complex pelleted (12,000 x g, 10 min for hIgG; 20,000 x g, 20 min for the Fc-fusions); eluted with 0.1 M glycine-HCl pH 2.5; SDS-PAGE and Western blot; both purified

## bovine serum albumin (BSA) (from UniProt P02769 25-607)
  binding: no binding
